One test addresses HSF1 (UniProt Q00613). As to the kind of experiment: DAPPL (digital affinity profiling via proximity ligation, sequencing). To be noted: 10 mM Tris-HCl pH 7.5, 50 mM NaCl, 1 mM DTT, 4% glycerol, room temperature, 30 min; GST-TFs on glutathione beads, 16-mer random dsDNA library, 0.1% …; high values mean tight binding; double strand, one strand shown; scale: fold enrichment (6-mer frequency, TF over GST control).

The chains behind the UniProt entries cited, without tags or fusion partners. Where a name states a change or a piece, a line headed by the entry shows the natural chain unless it says otherwise.
UniProt Q00613: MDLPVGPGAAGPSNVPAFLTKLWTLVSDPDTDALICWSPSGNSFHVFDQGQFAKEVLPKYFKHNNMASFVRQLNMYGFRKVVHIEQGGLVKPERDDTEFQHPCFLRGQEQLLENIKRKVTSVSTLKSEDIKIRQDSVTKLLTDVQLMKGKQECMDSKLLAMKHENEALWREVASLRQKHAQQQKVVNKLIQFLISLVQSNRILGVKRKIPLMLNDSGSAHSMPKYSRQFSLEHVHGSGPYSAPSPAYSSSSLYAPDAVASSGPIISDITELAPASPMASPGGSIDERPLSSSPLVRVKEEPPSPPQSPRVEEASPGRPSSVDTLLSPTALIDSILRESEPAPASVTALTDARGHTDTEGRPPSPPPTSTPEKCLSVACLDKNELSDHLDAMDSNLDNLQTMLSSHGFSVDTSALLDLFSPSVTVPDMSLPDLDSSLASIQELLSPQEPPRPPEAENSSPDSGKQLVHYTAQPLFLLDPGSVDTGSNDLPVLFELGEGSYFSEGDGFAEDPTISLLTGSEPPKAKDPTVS

A further test has as its target T1, ELF2 (UniProt Q15723).
T1 sequence: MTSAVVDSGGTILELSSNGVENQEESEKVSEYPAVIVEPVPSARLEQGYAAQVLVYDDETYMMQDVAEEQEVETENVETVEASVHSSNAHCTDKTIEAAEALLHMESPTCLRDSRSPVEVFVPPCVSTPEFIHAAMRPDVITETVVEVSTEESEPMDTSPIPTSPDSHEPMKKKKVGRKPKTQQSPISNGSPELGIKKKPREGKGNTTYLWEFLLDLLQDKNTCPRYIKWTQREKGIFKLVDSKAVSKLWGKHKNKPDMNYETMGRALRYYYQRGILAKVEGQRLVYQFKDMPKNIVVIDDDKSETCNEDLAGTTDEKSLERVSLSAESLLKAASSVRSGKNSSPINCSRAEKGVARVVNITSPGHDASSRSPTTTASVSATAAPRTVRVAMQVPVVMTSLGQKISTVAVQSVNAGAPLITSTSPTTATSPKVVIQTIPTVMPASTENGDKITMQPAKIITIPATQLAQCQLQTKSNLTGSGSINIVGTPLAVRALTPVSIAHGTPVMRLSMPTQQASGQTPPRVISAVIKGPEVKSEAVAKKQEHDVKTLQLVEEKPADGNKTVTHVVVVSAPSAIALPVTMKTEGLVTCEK
The description is as above. The following applies: 10 mM Tris-HCl pH 7.5, 50 mM NaCl, 1 mM DTT, 4% glycerol, room temperature, 30 min; GST-TFs on glutathione beads, 16-mer random dsDNA library, 0.1% …; high values mean tight binding; double strand, one strand shown; scale: fold enrichment (6-mer frequency, TF over GST control).

This passage reports binding signal results from PMC7862700.

Only a part is listed here, and it is no random draw. For some of these results: At the low end of the ranking the order means little. The list shows a part of the results. For some of these results: The exact form of the protein is not confirmed.

With CATTAG, the results for the binding signal with HSF1 and with ELF2 were 1.07 and 0.938, respectively.

As for TTCCGG, the binding signal in the test with HSF1 was 1.93; with ELF2 it was 9.16.

Consider GTATTG, for which the figures for the binding signal in the test with HSF1 and with ELF2 were 0.844 and 0.968, respectively.

As for ACTCGG, the values for the binding signal with HSF1 and in the test with ELF2 were 0.935 and 1.01, respectively.

In the case of TCTTTC, the values for the binding signal with HSF1 and with ELF2 were 1.82 and 1.43, respectively.

Regarding TTCACG, the results for the binding signal with HSF1 and with ELF2 were 1.51 and 1.38, respectively.

With GTAACC, the binding signal with HSF1 came to 0.785; with ELF2, 1.09.

Consider AACCGC, for which the binding signal with HSF1 amounted to 0.924; in the test with ELF2, 1.09.

Consider GCCCCC, for which the binding signal with HSF1 was 0.837; with ELF2 it was 1.07.

Turning to CGGCCT, the binding signal is 0.982 in the test with HSF1 and 1.09 with ELF2.

Turning to GCAGCA, the binding signal amounted to 0.754 with HSF1 and 0.927 in the test with ELF2.

In the case of GTACAA, the binding signal with HSF1 turned out to be 0.936; in the test with ELF2 it was 1.06.

CAAGTA: the binding signal amounted to 1.02 with HSF1 and 1.09 with ELF2.

As to ACGAGC, the binding signal was 0.925 in the test with HSF1 and 0.918 with ELF2.

For GCTGCA, the binding signal with HSF1 was found to be 0.838; with ELF2, 0.989.

Consider ATCCCA, for which the figures for the binding signal with HSF1 and with ELF2 were 1.34 and 1.09, respectively.

As to ACCATC, the results for the binding signal in the test with HSF1 and in the test with ELF2 were 1.14 and 1.07, respectively.

With TCAGAC, the binding signal in the test with HSF1 was found to be 0.809; in the test with ELF2 it was 0.878.

For the sequence ATGGGG, the binding signal is 0.885 with HSF1 and 1.05 in the test with ELF2.

With TAGCCT, the binding signal in the test with HSF1 was 1.43; with ELF2 it was 1.2.

For the sequence GTCCAT, the binding signal was 0.871 with HSF1 and 1.09 with ELF2.

With AATGAA, the binding signal with HSF1 was found to be 1.12; in the test with ELF2, 1.2.

With TTCCTA, the binding signal in the test with HSF1 was 1.59; with ELF2 it was 2.04.

As to CTCGGC, the binding signal in the test with HSF1 amounted to 1.31; with ELF2, 1.34.

As to AGTAGC, the binding signal in the test with HSF1 was 0.84; with ELF2, 1.08.

For TGGTTG, the binding signal came out at 0.793 with HSF1 and 0.943 with ELF2.

AACTTG: the binding signal worked out at 1.09 with HSF1 and 1.1 in the test with ELF2.

Take CTATGG: the binding signal in the test with HSF1 and in the test with ELF2 was 1.17 throughout.

With ACATAA, the binding signal with HSF1 turned out to be 1.2; in the test with ELF2 it was 1.09.

Regarding TGATTG, the figures for the binding signal with HSF1 and with ELF2 were 0.923 and 1, respectively.

Regarding GTATAC, the binding signal with HSF1 is 0.951; in the test with ELF2, 1.26.

In the case of ACACCG, the binding signal with HSF1 stood at 0.795; in the test with ELF2 it was 1.07.

For TTGCCA, the binding signal with HSF1 turned out to be 1.01; with ELF2 it was 1.03.

As to CGACCA, the values for the binding signal with HSF1 and in the test with ELF2 were 1.14 and 1.17, respectively.

As for GCGCGC, the binding signal with HSF1 came out at 0.946; with ELF2, 1.05.

TCCTGG: the binding signal in the test with HSF1 was found to be 1.29; with ELF2, 1.96.

Regarding CATTGA, the binding signal in the test with HSF1 was 0.857; with ELF2 it was 0.938.

For GCACAT, the binding signal is 0.908 with HSF1 and 1.1 with ELF2.

As for CGCAAT, the binding signal with HSF1 was determined as 0.808; in the test with ELF2, 0.952.

With AAATAC, the figures for the binding signal in the test with HSF1 and with ELF2 were 1.36 and 1.49, respectively.

Regarding CCTCCA, the figures for the binding signal in the test with HSF1 and with ELF2 were 1.29 and 1.28, respectively.
